Patent US4161522A (The Regents of the University of California, priority 1978, dated 1979)
Some peptides are written in HELM: one residue between dots, names in brackets for other building blocks, links after the first $.

Experiment: Boc solid-phase peptide synthesis; dicyclohexylcarbodiimide
Conditions: whole synthesis, based upon the arginine

Substance: PEPTIDE1{D.S.D.P.R}$$$$V2.0
- crude yield: 16%
